According to publication doi:10.1101/2020.09.30.320333:
These are yes or no findings as the source states them, for the method shown. Binding seen in cells or lysates may run through a third protein. Here binding means that the protein was enriched with, or labelled near, the bait; the list need not be complete. Where a sequence is shown, tags or fusion partners need not be part of it.

Target: T1, REEP4-TurboID-HA (human) (UniProt Q9H6H4)
T1 sequence: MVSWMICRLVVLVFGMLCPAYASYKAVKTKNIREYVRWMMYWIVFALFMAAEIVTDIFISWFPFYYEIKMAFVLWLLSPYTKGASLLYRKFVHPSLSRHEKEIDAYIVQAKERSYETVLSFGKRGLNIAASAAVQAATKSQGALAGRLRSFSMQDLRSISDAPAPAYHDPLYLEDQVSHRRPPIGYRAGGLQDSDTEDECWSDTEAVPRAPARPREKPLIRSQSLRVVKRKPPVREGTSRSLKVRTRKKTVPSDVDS
Assay: proximity labelling

B1: Rab3GAP2 (protein, UniProt Q9H2M9 1-1393)
chain: MACSIVQFCYFQDLQAARDFLFPHLREEILSGALRRDPSKSTDWEDDGWGAWEENEPQEPEEEGNTCKTQKTSWLQDCVLSLSPTNDLMVIAREQKAVFLVPKWKYSDKGKEEMQFAVGWSGSLNVEEGECVTSALCIPLASQKRSSTGRPDWTCIVVGFTSGYVRFYTENGVLLLAQLLNEDPVLQLKCRTYEIPRHPGVTEQNEELSILYPAAIVTIDGFSLFQSLRACRNQVAKAAASGNENIQPPPLAYKKWGLQDIDTIIDHASVGIMTLSPFDQMKTASNIGGFNAAIKNSPPAMSQYITVGSNPFTGFFYALEGSTQPLLSHVALAVASKLTSALFNAASGWLGWKSKHEEEAVQKQKPKVEPATPLAVRFGLPDSRRHGESICLSPCNTLAAVTDDFGRVILLDVARGIAIRMWKGYRDAQIGWIQTVEDLHERVPEKADFSPFGNSQGPSRVAQFLVIYAPRRGILEVWSTQQGPRVGAFNVGKHCRLLYPGYKIMGLNNVTSQSWQPQTYQICLVDPVSGSVKTVNVPFHLALSDKKSERAKDMHLVKKLAALLKTKSPNLDLVETEIKELILDIKYPATKKQALESILASERLPFSCLRNITQTLMDTLKSQELESVDEGLLQFCANKLKLLQLYESVSQLNSLDFHLDTPFSDNDLALLLRLDEKELLKLQALLEKYKQENTRTNVRFSDDKDGVLPVKTFLEYLEYEKDVLNIKKISEEEYVALGSFFFWKCLHGESSTEDMCHTLESAGLSPQLLLSLLLSVWLSKEKDILDKPQSICCLHTMLSLLSKMKVAIDETWDSQSVSPWWQQMRTACIQSENNGAALLSAHVGHSVAAQISNNMTEKKFSQTVLGADSEALTDSWEALSLDTEYWKLLLKQLEDCLILQTLLHSKGNTQTSKVSSLQAEPLPRLSVKKLLEGGKGGIADSVAKWIFKQDFSPEVLKLANEERDAENPDEPKEGVNRSFLEVSEMEMDLGAIPDLLHLAYEQFPCSLELDVLHAHCCWEYVVQWNKDPEEARFFVRSIEHLKQIFNAHVQNGIALMMWNTFLVKRFSAATYLMDKVGKSPKDRLCRRDVGMSDTAMTSFLGSCLDLLQILMEADVSRDEIQVPVLDTEDAWLSVEGPISIVELALEQKHIHYPLVEHHSILCSILYAVMRFSLKTVKPLSLFDSKGKNAFFKDLTSIQLLPSGEMDPNFISVRQQFLLKVVSAAVQAQHSATKVKDPTEEATPTPFGKDQDWPALAVDLAHHLQVSEDVVRRHYVGELYNYGVDHLGEEAILQVHDKEVLASQLLVLTGQRLAHALLHTQTKEGMELLARLPPTLCTWLKAMDPQDLQNTEVPIATTAKLVNKVIELLPEKHGQYGLALHLIEAVEAISLPSL
  binding: binds
